Results on two molecules are retold here after US20250345446A1 (Draupnir Bio ApS, priority 2022, published 2025).

Sequences of proteins named here, by UniProt entry; tags and fusion partners are left off. A line that says so, or that is headed by a name, gives the form on record, which may keep a tag or linker. Residues count along the entry.
UniProt Q99523, 34-756 with tags or gaps V650M: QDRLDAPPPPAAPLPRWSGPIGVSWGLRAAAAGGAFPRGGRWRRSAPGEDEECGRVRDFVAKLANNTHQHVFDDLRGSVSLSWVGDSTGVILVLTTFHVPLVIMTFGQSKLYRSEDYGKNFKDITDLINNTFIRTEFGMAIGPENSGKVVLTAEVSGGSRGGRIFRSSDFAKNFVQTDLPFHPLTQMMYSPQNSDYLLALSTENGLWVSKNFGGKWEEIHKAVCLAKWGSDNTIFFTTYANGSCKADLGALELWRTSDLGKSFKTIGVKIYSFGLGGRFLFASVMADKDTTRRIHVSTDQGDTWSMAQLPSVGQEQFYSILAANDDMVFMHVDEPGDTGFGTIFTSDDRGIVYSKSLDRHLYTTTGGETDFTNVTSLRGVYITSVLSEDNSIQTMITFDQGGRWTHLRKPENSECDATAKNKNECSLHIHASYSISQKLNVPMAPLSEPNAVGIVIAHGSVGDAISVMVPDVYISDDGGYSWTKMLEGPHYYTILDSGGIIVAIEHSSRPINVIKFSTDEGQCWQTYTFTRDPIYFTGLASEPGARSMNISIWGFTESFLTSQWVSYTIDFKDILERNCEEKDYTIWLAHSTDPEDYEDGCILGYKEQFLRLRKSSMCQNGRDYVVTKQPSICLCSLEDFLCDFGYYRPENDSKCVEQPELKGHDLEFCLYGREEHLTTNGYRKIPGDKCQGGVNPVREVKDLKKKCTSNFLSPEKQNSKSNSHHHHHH
UniProt Q99523, 78-756 with tags or gaps V650M limits assumed: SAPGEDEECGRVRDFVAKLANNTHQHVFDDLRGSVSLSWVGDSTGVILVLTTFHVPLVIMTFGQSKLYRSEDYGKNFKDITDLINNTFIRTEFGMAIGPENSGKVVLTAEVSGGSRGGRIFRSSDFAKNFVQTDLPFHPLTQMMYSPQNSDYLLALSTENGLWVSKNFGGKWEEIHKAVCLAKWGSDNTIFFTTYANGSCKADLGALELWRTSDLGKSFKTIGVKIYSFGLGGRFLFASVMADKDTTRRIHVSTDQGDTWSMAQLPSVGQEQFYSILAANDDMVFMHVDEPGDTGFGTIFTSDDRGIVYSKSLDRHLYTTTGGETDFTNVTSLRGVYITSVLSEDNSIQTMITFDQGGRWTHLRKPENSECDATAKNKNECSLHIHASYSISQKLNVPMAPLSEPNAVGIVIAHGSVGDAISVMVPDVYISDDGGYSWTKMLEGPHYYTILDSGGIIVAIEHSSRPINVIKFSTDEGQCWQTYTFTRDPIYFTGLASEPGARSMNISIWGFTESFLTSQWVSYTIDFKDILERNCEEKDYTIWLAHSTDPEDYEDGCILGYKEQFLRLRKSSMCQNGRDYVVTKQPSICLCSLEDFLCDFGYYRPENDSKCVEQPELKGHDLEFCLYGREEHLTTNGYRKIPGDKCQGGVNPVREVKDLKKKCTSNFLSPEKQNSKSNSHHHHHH
UniProt P22629, 25-183 limits assumed: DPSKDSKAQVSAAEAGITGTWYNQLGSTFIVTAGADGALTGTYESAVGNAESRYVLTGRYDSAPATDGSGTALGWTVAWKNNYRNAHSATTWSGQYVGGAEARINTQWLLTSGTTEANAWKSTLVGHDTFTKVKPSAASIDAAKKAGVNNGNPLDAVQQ

Where two headings read alike, the source gives them in different places. Structures were worked out from names or drawings and are uncertain.

Test [1] addresses soluble ectodomain of sortilin-6his (Homo sapiens, UniProt Q99523, V650M). Description: MST binding to soluble ectodomain of sortilin-6his.
The subject of test [2] is HEK293 cells expressing full length sortilin receptor. As to the kind of experiment: Cellular uptake of NA650 in HEK293/sortilin cells. The settings on record: 3 h incubation, 9.8 nM to 10 μM, NA650 100 nM.
Test [3] deals with streptavidin, bifunctional compound and sortilin-6his (UniProt P22629+Q99523, V650M). As to conditions: streptavidin-d2 and sortilin-6His.

Turning to `O=C(O)CNC(=O)CNC(=O)[C@H](CO)NC(=O)CNC(=O)CNC(=O)CNC(=O)CNC(=O)[C@H](CO)NC(=O)CNC(=O)CNC(=O)CNC(=O)CNC(=O)[C@H](CO)NC(=O)CNC(=O)CNC(=O)CCCC[C@@H]1SC[C@@H]2NC(=O)N[C@@H]21`, the “KD score, binding to sortilin (Kd)” value in test [1] (Table 1, biotin-linker-peptide bifunctional compounds, MST) is reported as “no binding”.

On to `CC(C)C[C@H](NC(=O)[C@H](CC(C)C)NC(=O)[C@H](CCC(N)=O)NC(=O)[C@H](CCCNC(=N)N)NC(=O)CNC(=O)CNC(=O)[C@H](CO)NC(=O)CNC(=O)CNC(=O)CNC(=O)CNC(=O)[C@H](CO)NC(=O)CNC(=O)CNC(=O)CNC(=O)CNC(=O)[C@H](CO)NC(=O)CNC(=O)CNC(=O)CCCC[C@@H]1SC[C@@H]2NC(=O)N[C@@H]21)C(N)=O`, for which the “cell associated FI signal, response to concentration series (in words)” value in test [2] is “bell-shaped response”. Also, the “proximity induced HTRF ratio as function of compound concentration (in words)” value in test [3] is given as “did not induce dose-dependent increase in HTRF ratio”. Moreover, the “KD score, binding to sortilin (Kd)” value in test [1] is reported as “no binding”. Besides, in test [1] (MST, fluorescent sortilin-6his (100 nM)), the “binding to sortilin-6his in MST (in words)” value was “incapable of binding”.
